Drawing on patent US5591763A, “treatments for diseases characterized by neovascularization” (President and Fellows of Harvard College, priority 1995, dated 1997), this text covers IC50 for 1 compound.

pIC50: −log10 of the molar value.

The test system of the assay is rat vascular smooth muscle cells. The assay is described as follows: cells. Format: cell-based. To be noted: read-out: ID50, inhibition of DNA synthesis. The procedure:
DNA synthesis assessed by the uptake of [3H]thymidine: Cells are grown in either 48 or 96 wells plates (Costar, Cambridge, Mass.) at 104 and 0.8 10^3 cells per well, respectively, and grown in Dubelcco's modified Eagle's medium (DME, Gibco, Grand Island, N.Y.) supplemented with 10% heat-inactivated calf serum; they are kept at 37° C. in 5% CO2. When they reach confluence, usually between 3 and 4 days, the medium is replaced with DME 0.5% serum to make them quiescent, and mitogenesis assays are performed 24 hours later.
Quiescent cells are exposed to a mitogenic stimulus, such as 10% serum, PDGF (Sigma Co. St. Louis, Mo.), bFGF (Upstate Biotechnologies, Lake Placid, N.Y.), or other appropriate mitogen according to the cell line, and 3 hours later 1 μCi/ml of [3H]thymidine (Dupont, Billerica, Mass. ) is added to the wells, and the cells maintained at 37° C./5% CO2 for additional 21 hours. Then the cells are washed 3 times with DME medium and the acid-precipitable radioactivity is extracted with cold 10% TCA (Sigma, Co). After neutralization with 0.3 N NaOH (Sigma Co.), aliquots are counted in a Packard Tri-Carb Scintillation counter (Packard Instrument, Downer's Grove, Ill.). […]

With `Clc1ccccc1C(c1ccccc1)(c1ccccc1)n1ccnc1` [clotrimazole], the pIC50 was roughly 5.82.
